PubChem BioAssay AID1259424, University of Nebraska Medical Center, 2018

Screen: 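Rank knockdowns across the genome by resemblance to the KSR1 depletion profile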 (primary screen)
System: human HCT116 colon cancer cells
Reagents: siRNA pool against human genes, 50 nM
Measurement: 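Six signature mRNAs by branched-DNA multiplex assay, scaled to two housekeeping genes and non-targeting median, log2; matched to mean KSR1 knockdown profile by Pearson correlation and euclidean distance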
Reading the numbers: mean correlation with KSR1 profile: higher = expression change more like KSR1 knockdown; mean distance from KSR1 profile: higher = expression change less like KSR1 knockdown
In all, the deposit lists about 14,000 reagents; this is an unselected part. 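Higher correlation or smaller distance means closer resemblance to KSR1 loss; control wells, including KSR1 knockdowns, recur on many plates.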 Further read-outs or replicates are left out here. The record does not give: the time to read-out.

For SESN2 (GeneID 83667) the deposit lists mean correlation with KSR1 profile 0.106; mean distance from KSR1 profile 2.38.
Silencing of GALC (GeneID 2581) resulted in: mean correlation with KSR1 profile 0.705; mean distance from KSR1 profile 1.36.
For BRI3BP (GeneID 140707), the entry reads mean correlation with KSR1 profile 0.104; mean distance from KSR1 profile 1.02.
Knock-down of TPBG (GeneID 7162) resulted in: mean correlation with KSR1 profile -0.565; mean distance from KSR1 profile 2.88.
After knock-down of CHMP2B (GeneID 25978) the results were mean correlation with KSR1 profile -0.36; mean distance from KSR1 profile 3.32.
After knock-down of ACOT12 (GeneID 134526), the record shows mean correlation with KSR1 profile 0.316; mean distance from KSR1 profile 3.02.
MRPS7 (GeneID 51081) gave mean correlation with KSR1 profile -0.369; mean distance from KSR1 profile 4.09.
KBTBD8 (GeneID 84541) showed mean correlation with KSR1 profile -0.196; mean distance from KSR1 profile 3.03.
Knock-down of KLRB1 (GeneID 3820) gave: mean correlation with KSR1 profile -0.58; mean distance from KSR1 profile 2.34.
Against IDE (GeneID 3416), the values are mean correlation with KSR1 profile 0.426; mean distance from KSR1 profile 1.25.
Against HTT (GeneID 3064), the entry reads mean correlation with KSR1 profile 0.467; mean distance from KSR1 profile 3.18.
Silencing of SCAND1 (GeneID 51282) gave: mean correlation with KSR1 profile 0.0103; mean distance from KSR1 profile 2.28.
Knock-down of RPA4 (GeneID 29935) resulted in: mean correlation with KSR1 profile 0.31; mean distance from KSR1 profile 1.82.
CLDN22 (GeneID 53842) gave mean correlation with KSR1 profile -0.213; mean distance from KSR1 profile 2.06.
XPNPEP1 (GeneID 7511) scored mean correlation with KSR1 profile -0.0181; mean distance from KSR1 profile 1.45.
With knock-down of MAG (GeneID 4099), the screen gave mean correlation with KSR1 profile 0.188; mean distance from KSR1 profile 3.11.
For ELP1 (GeneID 8518), the values are mean correlation with KSR1 profile 0.395; mean distance from KSR1 profile 1.57.
Knock-down of TMEM108 (GeneID 66000) resulted in: mean correlation with KSR1 profile -0.186; mean distance from KSR1 profile 2.6.
Silencing of TMEM101 (GeneID 84336) resulted in: mean correlation with KSR1 profile 0.664; mean distance from KSR1 profile 2.41.
With knock-down of TUBB1 (GeneID 81027), the record shows mean correlation with KSR1 profile 0.0059; mean distance from KSR1 profile 2.01.
DBNDD2 (GeneID 55861) scored mean correlation with KSR1 profile -0.71; mean distance from KSR1 profile 3.07.
After knock-down of FOLH1 (GeneID 2346), the record shows mean correlation with KSR1 profile 0.296; mean distance from KSR1 profile 2.44.
With knock-down of PRMT5 (GeneID 10419), the record shows mean correlation with KSR1 profile 0.0405; mean distance from KSR1 profile 3.33.
For MTREX (GeneID 23517), the entry reads mean correlation with KSR1 profile -0.395; mean distance from KSR1 profile 2.15.
SERPINB2 (GeneID 5055) scored mean correlation with KSR1 profile -0.679; mean distance from KSR1 profile 1.41.
Against PPP4R1L (GeneID 55370), the entry reads mean correlation with KSR1 profile 0.827; mean distance from KSR1 profile 0.851.
After knock-down of DGKD (GeneID 8527), the screen gave mean correlation with KSR1 profile 0.205; mean distance from KSR1 profile 1.82.
Knock-down of BORCS6 (GeneID 54785) resulted in: mean correlation with KSR1 profile -0.268; mean distance from KSR1 profile 5.3.

Part of the list above, reformatted:
gene	mean correlation with KSR1 profile	mean distance from KSR1 profile
MAG (GeneID 4099)	0.188	3.11
ELP1 (GeneID 8518)	0.395	1.57
